# PubChem BioAssay AID504834 (National Center for Advancing Translational Sciences (NCATS), 2011)
# Screen size: about 320,000 compounds; about 22,000 (6.9%) were called active. The inconclusive results got no clear call from the source; some entries with a clear call stand among them for comparison. The call rests on the fitted dose curve; in most records, active means well fitted inhibition curve with a large enough effect; inconclusive means small, poorly fitted or top-dose-only effect, or another doubt; inactive means no such curve, though single readings can be large or run the other way. Potencies beside an inconclusive call are fits to weak or partial responses and may not hold up.
# Experiment: Primary qHTS for delayed death inhibitors of the malarial parasite plastid, 96 hour incubation
# Conditions: P. falciparum luciferase reporter growth; series mostly up to 28.7 µM
# In short: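 Parasite growth measured via integrated firefly luciferase reporter in P. falciparum. Infected erythrocytes at 2% hematocrit, 0.05% parasitemia final were treated 96 hours at 37 C under 5% CO2, and luminescence was read.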
# On the % scale 0 is the no-effect control and ±100 the full control effect; potency means the concentration at half of the fitted maximal effect.
Structure (SMILES),Potency,"activity change, negative = inhibition"
CCOc1cccc(NC(=O)C2CC(=O)N(C)C(=Nc3cccc(F)c3)S2)c1 (stereo not given),"inconclusive: 5.22 µM [inhibitor, partial curve]",–
CCCc1cc(=O)[nH]c(SCC(=O)Nc2ccc(Br)cc2Br)n1,inactive,–
COC1CCN(Cc2cn(Cc3ccccc3)nc2-c2cc3ccccc3o2)CC1,active: 10.4 µM,–
Cc1cccc(CN2C(=O)NC(c3ccccc3)(c3ccccc3)C2=O)c1,"inconclusive: 3.7 µM [inhibitor, partial curve]",–
Cc1[nH]c(=O)[nH]c(=O)c1/C=N/NC(=O)[C@H](C)N,"inconclusive: 18.5 µM [inhibitor, single point]",–
CCOP(=O)(c1ccccc1)c1nc(-c2ccccc2Cl)oc1N1CCCCC1 (stereo not given),"inconclusive: 11.7 µM [inhibitor, partial curve, poor fit]",–
Cc1ccc(NC(=S)N(CCCN2CCOCC2)Cc2ccco2)cc1,active: 11.7 µM,–
CC(C)CCn1c(=O)c2ccccc2n2c(=S)[nH]nc12,inactive,–
COc1cc(CC(=O)O)c(C(C)=O)cc1OC,active: 3.7 µM,–
O=C(c1cccc(N2C(=O)C3CC=CCC3C2=O)c1)N1CCCCCC1 (stereo not given),active: 0.165 µM,–
O=C(CN1C(=O)NC2(CCCC2)C1=O)Nc1cc(Cl)ccc1N1CCCC1,"inconclusive: 13.1 µM [inhibitor, partial curve, poor fit]",–
CN(Cc1ccccc1OCCO)CC1CCCN(CCc2ccc(Cl)cc2)C1 (stereo not given),"inconclusive: 1.65 µM [inhibitor, partial curve, poor fit]",–
C=CCOc1cccc(C2/C(=C(\O)c3ccc4c(c3)OCCO4)C(=O)C(=O)N2CCN2CCOCC2)c1 (stereo not given),"inconclusive: 18.5 µM [inhibitor, single point]",–
COc1ccc(C(=O)C2CCCN(C(=O)c3cccc(N4CCCC4=O)c3)C2)cc1OC (stereo not given),inactive,–
COc1ccc(Cl)cc1NC(=S)N(Cc1ccccc1C)CC1CCC(C(=O)O)CC1 (stereo not given),"inconclusive: 1.31 µM [inhibitor, full curve, poor fit]",–
Cc1sc2ncn(CC(=O)NCc3ccccn3)c(=O)c2c1S(=O)(=O)N1CCOCC1,"inconclusive: 9.28 µM [inhibitor, single point]",–
N#Cc1nc(COc2ccc(-c3ccccc3)cc2)oc1NCc1cccnc1,"inconclusive: 18.5 µM [inhibitor, single point]",–
COc1ccc(-c2csc(NS(=O)(=O)c3ccc([N+](=O)[O-])cc3)n2)cc1,"inconclusive: 13.1 µM [inhibitor, partial curve, poor fit]",–
CC1=NN(Cc2ccccc2)C(=O)C1C(c1ccncc1)C(C#N)C#N (stereo not given),"inconclusive: 0.828 µM [inhibitor, full curve, poor fit]",–
O=C(CS(=O)(=O)c1ccccc1)N1CCc2ccccc21,active: 0.828 µM,–
O=c1oc(-c2ccccc2NS(=O)(=O)c2ccc(F)cc2)nc2ccccc12,inactive,–
O=C(Nc1nncs1)c1cc(S(=O)(=O)N2CCCCC2)ccc1Cl,inactive,–
O=C(NCCc1ccc(C(F)(F)F)cc1)C1COc2ccccc2O1 (stereo not given),inactive,–
C=C(C)Cn1c(Sc2nnc(C)s2)nc2c1c(=O)[nH]c(=O)n2C,"inconclusive: 18.5 µM [inhibitor, single point]",–

Structure (SMILES),Potency,"activity change, negative = inhibition"
N#CCC(=O)Nc1ccc(C(=O)OCC(=O)C23CC4CC(CC(C4)C2)C3)cc1,"inconclusive: 18.5 µM [inhibitor, single point]",–
COc1cc(C2C(C#N)=C(C)NC(C)=C2C#N)cc(OC)c1OC,active: 11.7 µM,–
Cc1ccc(NC(=O)Nc2nc3ccc(S(C)(=O)=O)cc3s2)cc1,"inconclusive: 1.85 µM [inhibitor, partial curve]",–
CN1C(=S)N(c2cccnc2)C(=O)/C1=C\c1ccc(C(C)(C)C)cc1,"inconclusive: 9.28 µM [inhibitor, partial curve, poor fit]",–
CCN1C(=O)c2ccc(C(=O)NCc3ccco3)cc2C1=O,"inconclusive: 18.5 µM [inhibitor, single point]",–
CCOc1ccc(/C=N/NC(=S)NC2CC3CCC2C3)cc1 (stereo not given),"inconclusive: 13.1 µM [inhibitor, partial curve, poor fit]",–
COc1cc(-c2nc(-c3ccc4c(c3)-c3ccccc3S4(=O)=O)c(-c3ccccc3)[nH]2)cc(OC)c1OC,inactive,–
COc1ccc(CCC(=O)Nc2nnc(C(F)(F)F)s2)cc1,active: 14.7 µM,–
O=C(Nc1ccc(F)cc1)C1CCC(CNc2c(N3CCCCC3)c(=O)c2=O)CC1 (stereo not given),"inconclusive: 11.7 µM [inhibitor, partial curve]",–
CC1(NC(=O)c2ccccc2)CCN(CCCc2ccccc2)C1=O (stereo not given),"inconclusive: 5.22 µM [inhibitor, partial curve, poor fit]",–
Cc1cccc(N=C2NC(=O)S/C2=C\c2ccco2)c1,"inconclusive: 13.1 µM [inhibitor, partial curve, poor fit]",–
Cc1ccc(NC(=O)c2c(C)nc3sc(C(=O)NC4CCCC4)c(N)c3c2-c2ccco2)c(C)c1,inactive,–
N=C1S/C(=C\c2ccco2)C(=O)N1c1nccs1,"inconclusive: 10.4 µM [inhibitor, partial curve]",–
O=C1NC(c2ccc(-c3ccccc3[N+](=O)[O-])o2)C(C(=O)c2ccccc2)C(O)(C(F)(F)F)N1 (stereo not given),"inconclusive: 18.5 µM [inhibitor, single point]",–
CCN(CC)CCN(C(=O)C1CCCCC1)c1nc2cc3c(cc2s1)OCO3,inactive,–
Cc1cccc(NC(=O)C2CCCN(S(=O)(=O)c3cccc4nsnc34)C2)c1 (stereo not given),active: 8.28 µM,–
COc1ccc(N2CCN(C(=O)CCc3ccc(S(=O)(=O)NCC(C)C)cc3)CC2)cc1,"inconclusive: 18.5 µM [inhibitor, single point]",–
COc1cc(C(=O)Nc2ccc(C(F)(F)F)cc2)ccc1OCC(=O)N1CCOCC1,inactive,–
CCN(CC1COc2ccccc2O1)C(=O)CN1C(=O)NC(C)(c2ccc(C)cc2)C1=O (stereo not given),"inconclusive: 14.7 µM [inhibitor, single point]",–
COc1ccc(NC(=O)CSC2=NCCN2)cc1,"inconclusive: 3.7 µM [inhibitor, single point]",–
Cc1cc(=O)cc(C)n1-c1ccccc1Br,"inconclusive: 18.5 µM [inhibitor, single point]",–
CSc1nc(C)c2c(n1)N(c1ccc(F)cc1)CC2,inactive,–
COC(=O)c1ccc(NC(=S)Nc2ccccc2)cc1,inactive,–
Cc1ccc(NC(=O)N(Cc2ccco2)C(C)c2ccco2)cc1C (stereo not given),"inconclusive: 0.415 µM [inhibitor, full curve]",–

Structure (SMILES),Potency,"activity change, negative = inhibition"
Cc1nn(Cc2ccccc2Cl)c2sc(C(=O)Nc3nccs3)cc12,"inconclusive: 18.5 µM [inhibitor, single point]",–
Cc1ccc(C(=O)N/N=C2\CC3CC=CC23)c(C)c1 (stereo not given),inactive,–
CCCN(CC(=O)Nc1ccccc1C)C(=O)COc1c(C)cccc1C,inactive,–
COc1ccc(NC(=O)COc2ccc3oc(=O)cc(C)c3c2)cc1,"inconclusive: 18.5 µM [inhibitor, single point]",–
O=c1c2ccccc2nc(-c2ccc([N+](=O)[O-])cc2)n1O,"inconclusive: 18.5 µM [inhibitor, single point]",–
C=CCNc1nc(-c2ccccc2)nc(-n2ccnc2)n1,"inconclusive: 10.4 µM [inhibitor, single point]",–
CC1(C)CN=C(NCc2ccccc2Cl)S1,inactive,–
Cc1ccc(S(=O)(=O)N2CCN(CC(=O)N(CC(C)C)c3c(N)n(CC(C)C)c(=O)[nH]c3=O)CC2)c(C)c1,active: 4.15 µM,–
CC(=O)Nc1ccccc1C(=O)C(=O)Nc1cccc(C(=O)NCc2ccccc2)c1,"inconclusive: 11.7 µM [inhibitor, single point]",–
Cc1cccc(-c2nc(CS(=O)CC(=O)NC3CCCC3)c(C)o2)c1 (stereo not given),"inconclusive: 4.15 µM [inhibitor, single point]",–
CCOC(=O)C1=C(NC(=S)NC(=O)c2ccccc2)c2ccccc2CC1(C)CC (stereo not given),"inconclusive: 1.47 µM [inhibitor, full curve, poor fit]",–
CC(NC(=O)/C=C/c1ccco1)c1nc2ccccc2n1Cc1cccc(Cl)c1 (stereo not given),"inconclusive: 14.7 µM [inhibitor, partial curve, poor fit]",–
COc1ccc(NC(=O)Nc2ccc(CC(=O)O)cc2)cc1,inactive,–
C#CCCC(=O)c1ccccc1/C=[N+](\[O-])c1ccccc1,"inconclusive: 2.33 µM [inhibitor, full curve]",–
CC(=O)Nc1ccc(OCC(=O)NCCc2ccc(Cl)cc2)cc1,active: 13.1 µM,–
CCN(CC)CCC(c1ccc2c(c1)OCO2)c1c(OC)cc(OC)c2c(-c3ccccc3)cc(=O)oc12 (stereo not given),active: 5.22 µM,–
O=c1cc(-c2ccccc2)nc(SCc2ccccc2F)[nH]1,inactive,–
COc1ccccc1C1CC(c2c(-c3ccccc3)c3cc(Cl)ccc3[nH]c2=O)=NN1S(C)(=O)=O (stereo not given),"inconclusive: 14.7 µM [inhibitor, single point]",–
Cc1ccc2[nH]c(=O)c(CN(CCCN3CCOCC3)Cc3nnnn3C3CCCC3)cc2c1,inactive,–
COc1ccc(NC(=O)CC2C(=O)N(Cc3cccs3)C(=S)N2C(C)C)cc1 (stereo not given),–,inactive: 29.4% [at 5.75 µM]
CC1CN(Cc2cc(=O)oc3cc(O)ccc23)CC(C)O1 (stereo not given),"inconclusive: 9.28 µM [inhibitor, partial curve, poor fit]",–
CN(CCN1CCOCC1)C(=O)CC1C(=O)NCCN1Cc1ccccc1F (stereo not given),"inconclusive: 10.4 µM [inhibitor, single point]",–

# 3 neighbouring compounds already listed, for reference:
Structure (SMILES),Potency,"activity change, negative = inhibition"
O=C(CS(=O)(=O)c1ccccc1)N1CCc2ccccc21,active: 0.828 µM,–
O=c1oc(-c2ccccc2NS(=O)(=O)c2ccc(F)cc2)nc2ccccc12,inactive,–
O=C(Nc1nncs1)c1cc(S(=O)(=O)N2CCCCC2)ccc1Cl,inactive,–

# 2 compounds drawn at random from the list so far:
Structure (SMILES),Potency,"activity change, negative = inhibition"
O=c1cc(-c2ccccc2)nc(SCc2ccccc2F)[nH]1,inactive,–
O=c1oc(-c2ccccc2NS(=O)(=O)c2ccc(F)cc2)nc2ccccc12,inactive,–
